Experimental data published in PubChem BioAssay AID504834 (National Center for Advancing Translational Sciences (NCATS), 2011).
About 22,000 (6.9%) of roughly 320,000 compounds were called active. Inconclusive results, whose numbers are uncertain, are shown with a selection of clear calls. The call rests on the fitted dose curve; in most records, active means well fitted inhibition curve with a large enough effect; inconclusive means small, poorly fitted or top-dose-only effect, or another doubt; inactive means no such curve, though single readings can be large or run the other way. Potencies of inconclusive entries are doubtful fits and often do not repeat.

Assay: Primary qHTS for delayed death inhibitors of the malarial parasite plastid, 96 hour incubation
Conditions: P. falciparum luciferase reporter growth; series mostly up to 28.7 µM
Outline: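 Delayed-death screen, second-generation endpoint: infected erythrocytes, 2% hematocrit, 0.05% parasitemia final; 96 hours at 37 C, 5% CO2; luciferase detection reagent; luminescence decrease equals reduced growth.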
Potency means the concentration at half of the fitted maximal effect.

SMILES | Potency
CCCC[n+]1ccn(C2=C([O-])c3ccccc3C(=O)/C2=N\S(=O)(=O)c2ccc(Br)cc2)c1 | inconclusive: 3.7 µM [inhibitor, full curve, poor fit]
CCc1ccc2[nH]c(=O)c(-c3ccccc3)c(O)c2c1 | inconclusive: 14.7 µM [inhibitor, single point]
CCc1ccc(CCC(=O)Nc2ncc(Cc3ccccc3Cl)s2)o1 | inconclusive: 18.5 µM [inhibitor, single point]
O=C(COc1coc(CN2CCN(c3ccccc3)CC2)cc1=O)Nc1ccccc1 | inconclusive: 5.86 µM [inhibitor, partial curve]
Cc1ccccc1OCC(O)CN1CCN(C)CC1 (stereo unspecified) | inactive
Cc1ccc(C(=O)Nc2cccc(C(F)(F)F)c2)cc1NC(=O)c1cnnc2ccccc12 | inconclusive: 5.86 µM [inhibitor, partial curve]
COC(C(=O)Nc1ccnn1C1CCN(C(=O)c2cccc(F)c2)CC1)c1ccccc1 (stereo unspecified) | inconclusive: 10.4 µM [inhibitor, single point]
Cc1ccc(NS(=O)(=O)c2cc(Br)cnc2N)c(Cl)c1 | inactive
CCOCCCNC(=O)C(NC(=O)c1ccc2c(c1)OCO2)c1ccccc1 (stereo unspecified) | inconclusive: 11.7 µM [inhibitor, single point]
COc1ccc(NC(=O)c2cncc(Br)c2)c(S(=O)(=O)N2CCOCC2)c1 | active: 10.4 µM
COc1cc2c(cc1OC)C(c1ccc([N+](=O)[O-])cc1)NCC2 (stereo unspecified) | inconclusive: 18.5 µM [inhibitor, single point]
CCOc1nc(-c2ccc(C)cc2)ccc1-c1noc(-c2cccnc2)n1 | inactive
CCOC(=O)c1oc2ccc(S(=O)(=O)n3nc(-c4ccccc4)cc3N)cc2c1C | inconclusive: 13.1 µM [inhibitor, single point]
CCN(CC)S(=O)(=O)c1ccc(-c2nnc(SCC(C)=O)o2)cc1 | inconclusive: 5.86 µM [inhibitor, single point]
Cc1ccccc1N(CC(=O)NCc1ccncc1)S(C)(=O)=O | inactive
Nc1nc(N)nc(-c2ccc(Oc3ccccc3)cc2)n1 | inactive
CCc1noc(C)c1C(=O)N1CCCC(N2CCN(c3ccccc3F)CC2)C1 (stereo unspecified) | inconclusive: 4.15 µM [inhibitor, partial curve]
Cc1ccc2oc(C(=O)N(Cc3ccccc3)C3CCS(=O)(=O)C3)c(C)c2c1 (stereo unspecified) | inconclusive: 11.7 µM [inhibitor, partial curve, poor fit]
Cc1ccc(NC(=O)c2ccc(CNc3c(N4CCC(C)CC4)c(=O)c3=O)cc2)cc1 | inconclusive: 13.1 µM [inhibitor, partial curve]
Cc1ccc2c(C(=O)CN3CC(C)CC(C)C3)c(C)[nH]c2c1 (stereo unspecified) | inconclusive: 18.5 µM [inhibitor, single point]
Cc1cc(C)c2c(=O)[nH]c(SCc3ccccc3)nc2n1 | inconclusive: 9.28 µM [inhibitor, single point]
CCn1cc(C(=O)N2CCN(c3ccccc3F)CC2)c(=O)c2ccc(C)nc21 | inactive
CCC(=O)Nc1nnc(SCC(=O)Nc2ccc(F)cc2)s1 | inactive
O=C(NCCOc1ccccc1)C1CCC(=O)N(CCc2ccccn2)C1 (stereo unspecified) | inconclusive: 16.5 µM [inhibitor, single point]

SMILES | Potency
COc1ccc(-c2cc(C(=O)OCC(=O)c3ccc(C)c([N+](=O)[O-])c3)c3ccccc3n2)cc1 | inactive
COc1ccc(-c2cc(C(=O)N/N=C/c3ccc4c(c3)OCO4)c3ccccc3n2)c(OC)c1 | inconclusive: 13.1 µM [inhibitor, partial curve, poor fit]
COc1cc2c(cc1OC)CN(CC(=O)Nc1ccc(S(=O)(=O)N3CCCC3)cc1)CC2 | active: 13.1 µM
COCC(=O)N1CCC(Oc2ccc(C(=O)NCc3csc(C(C)C)n3)cc2)CC1 | inactive
Cc1cc(C)nc(SCc2cc(=O)c(OC(=O)c3ccc(S(=O)(=O)N(C)C)cc3)co2)n1 | inconclusive: 18.5 µM [inhibitor, single point]
Nc1ccc(CN2CCOCC2)cc1 | inconclusive: 14.7 µM [inhibitor, single point]
CC(C)=CCC/C(C)=C/CC(C)(C)CNCCN1CCNCC1 | active: 4.65 µM
O=C(COc1ncnc2ccccc12)N1CCN(C(=O)c2ccco2)CC1 | inconclusive: 18.5 µM [inhibitor, single point]
O=C(C[N+]1(CC#Cc2ccccc2)CCCCC1)c1ccc(Cl)cc1 | inactive
O=C1CC(c2ccsc2)Sc2ccccc2N1 (stereo unspecified) | inactive
O=C(CN1C(=O)COc2ccccc21)N(Cc1cccnc1)Cc1cccc(F)c1 | inactive
O=C(NCc1cc([N+](=O)[O-])ccc1O)c1cccc(NS(=O)(=O)c2ccccc2)c1 | inconclusive: 13.1 µM [inhibitor, single point]
Cc1ccc(-c2nnc(N3CCCCC3)c3ccccc23)cc1S(=O)(=O)N(C)C | inconclusive: 20.8 µM [inhibitor, single point]
O=C(CCn1c(=O)c2ccccc2n(Cc2ccccc2)c1=O)NC1CCN(Cc2ccccc2)CC1 | active: 8.28 µM
CC(C)(C)c1csc(NC(=O)c2c(F)c(F)c(F)c(F)c2F)n1 | inactive
COc1ccc(CCNC(=O)CSc2nnc3ccc(-c4cccnc4)nn23)cc1 | inconclusive: 4.65 µM [inhibitor, partial curve, poor fit]
O=C(c1ccc(Cl)c(S(=O)(=O)N2CCOCC2)c1)N1CCN(Cc2ccccc2)CC1 | inconclusive: 18.5 µM [inhibitor, single point]
Cc1csc(SCC(=O)Nc2cc(S(=O)(=O)N3CCCC3)ccc2Cl)n1 | inconclusive: 0.37 µM [inhibitor, partial curve, poor fit]
Cn1cnnc1SCC(=O)Nc1cccc(C(=O)O)c1 | inactive
CCN(CC)S(=O)(=O)c1cccc(NC(=O)COC(=O)CCc2nc3ccccc3s2)c1 | inconclusive: 0.0928 µM [inhibitor, full curve, poor fit]
Clc1cc(NCc2cccs2)ccc1N1CCOCC1 | inactive
Cn1c(=O)c2c(SCC(N)=O)nc(CC(C)(C)C)nc2n(C)c1=O | inactive
Cc1cccc(NC2=C(NC(=O)c3ccccc3)C(=O)c3ccccc3C2=O)c1 | inconclusive: 0.147 µM [inhibitor, full curve, poor fit]
CN(C)CCCNC(=O)c1cc(Br)ccc1Cl | active: 9.28 µM

Copied from the list.
Entry for `COc1cc2c(cc1OC)CN(CC(=O)Nc1ccc(S(=O)(=O)N3CCCC3)cc1)CC2` under Potency: active: 13.1 µM
Entry for `COc1ccc(-c2cc(C(=O)OCC(=O)c3ccc(C)c([N+](=O)[O-])c3)c3ccccc3n2)cc1` under Potency: inactive
Entry for `O=C(NCc1cc([N+](=O)[O-])ccc1O)c1cccc(NS(=O)(=O)c2ccccc2)c1` under Potency: inconclusive: 13.1 µM [inhibitor, single point]
Entry for `COCC(=O)N1CCC(Oc2ccc(C(=O)NCc3csc(C(C)C)n3)cc2)CC1` under Potency: inactive
Entry for `COc1ccc(CCNC(=O)CSc2nnc3ccc(-c4cccnc4)nn23)cc1` under Potency: inconclusive: 4.65 µM [inhibitor, partial curve, poor fit]

(further entries)

SMILES | Potency
Cc1oc(-c2ccccc2Cl)nc1CS(=O)CC(=O)NCc1ccc2c(c1)OCO2 (stereo unspecified) | inconclusive: 18.5 µM [inhibitor, single point]
CCOC(=O)C1(CCCc2ccccc2)CCN(CC(O)CO)CC1 (stereo unspecified) | inconclusive: 16.5 µM [inhibitor, partial curve, poor fit]
Cc1ccc(CNC(=O)c2cccc(OCc3c(C)noc3C)c2)cc1 | inconclusive: 0.465 µM [inhibitor, full curve, poor fit]
CC(=O)Nc1cccc(/C(C)=N/NC(N)=S)c1 | inactive
O=C(NCCc1cccnc1)C1CCC(=O)N(CCc2cccc(F)c2)C1 (stereo unspecified) | inconclusive: 14.7 µM [inhibitor, single point]
CC1=NN(c2ccccc2)C(=O)/C1=C/N(C)C | inactive
CCN1C(=O)C(CC(=O)Nc2ccccc2)N(Cc2ccccn2)C1=S (stereo unspecified) | inactive
COC(=O)c1cccc(NC(=O)c2ccco2)c1 | inconclusive: 2.62 µM [inhibitor, partial curve]
COc1ccc(OC)c(C2NC(=S)NC3=C2N2CCC3CC2)c1 (stereo unspecified) | inconclusive: 18.5 µM [inhibitor, single point]
O=C(NCc1ccccc1Cl)C1CCN(c2ncnc3c2nc2n3CCCCC2)CC1 | inactive
COc1ccc(CCNC(=O)CN2CCOc3ccccc32)cc1OC | inconclusive: 0.131 µM [inhibitor, full curve, poor fit]
COc1ccc2nc3cc(Cl)ccc3c(Nc3cc(CN4CCCC4)c(O)c(CN4CCCC4)c3)c2n1 | inconclusive: 0.0029 µM [inhibitor, full curve, poor fit]
Cc1ccc(N(C(=O)Cn2nnc(-c3ccc(C)o3)n2)C(C(=O)NC2CCCC2)c2ccncc2)cc1 (stereo unspecified) | active: 10.4 µM
Cc1cc(C(=O)COC(=O)c2n[nH]c(=O)c3ccccc23)c(C)n1C(C)C | inactive
Cc1cccc(N2CCN(C(=O)c3ccc(CNc4c(N5CCC(C)CC5)c(=O)c4=O)cc3)CC2C)c1 (stereo unspecified) | inconclusive: 10.4 µM [inhibitor, partial curve, poor fit]
COc1ccc(S(=O)(=O)N2CCN(CC3CC=CCC3)CC2)cc1 (stereo unspecified) | inconclusive: 11.7 µM [inhibitor, partial curve]
Cc1ccc(CC23CN4CCN(CC(C4)C2O)C3)c(C)c1 (stereo unspecified) | inconclusive: 4.15 µM [inhibitor, single point]
Cc1onc(-c2c(F)cccc2Cl)c1C(=O)N(Cc1ccccc1)C(C)C | inconclusive: 1.04 µM [inhibitor, full curve]
CCOC(=O)C1CCN(C(C)C(=O)c2c(C)[nH]c3cc(C)ccc23)CC1 (stereo unspecified) | inconclusive: 13.1 µM [inhibitor, partial curve]
COc1ccc(-n2c3c(cc(C(=O)N4CCN(CCO)CC4)c2=O)C(=O)CC(C)(C)C3)cc1 | active: 10.4 µM
COc1ccccc1C(=O)/C=C/c1ccc(N2CCCCC2)c([N+](=O)[O-])c1 | active: 7.38 µM
Cn1ncnc1SCc1cn2cccnc2n1 | inactive
O=c1cc(N2CCc3ccccc32)[nH]c(=O)n1-c1ccccc1Cl | inactive
